According to doi:10.1101/2021.04.06.21255004:
Results are given in words; binding and its absence hold for the method and conditions named. In cells and extracts the contact can be indirect. Some results given as binding are weak or reduced against the parent protein; the word gives no strength.

Amino acid sequences for entries named in this document (tags omitted).
UniProt P69905: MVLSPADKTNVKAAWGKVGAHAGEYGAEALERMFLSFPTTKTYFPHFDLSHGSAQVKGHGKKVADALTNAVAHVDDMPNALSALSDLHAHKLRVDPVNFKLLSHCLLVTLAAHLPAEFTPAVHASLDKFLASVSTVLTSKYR

Target: alpha globin (human (endogenous in omental arteries)) (UniProt P69905)
Assay: co-IP

- binding: binds
B1: cytochrome B5 reductase 3 (enzyme, UniProt P00387 1-301)
chain: MGAQLSTLGHMVLFPVWFLYSLLMKLFQRSTPAITLESPDIKYPLRLIDREIISHDTRRFRFALPSPQHILGLPVGQHIYLSARIDGNLVVRPYTPISSDDDKGFVDLVIKVYFKDTHPKFPAGGKMSQYLESMQIGDTIEFRGPSGLLVYQGKGKFAIRPDKKSNPIIRTVKSVGMIAGGTGITPMLQVIRAIMKDPDDHTVCHLLFANQTEKDILLRPELEELRNKHSARFKLWYTLDRAPEAWDYGQGFVNEEMIRDHLPPPEEEPLVLMCGPPPMIQYACLPNLDHVGHPTERCFVF
